This data set deals with T1, PTK7 (receptor on HCT116 cells) (human (HCT116 colon cancer cells)) (UniProt Q13308).
T1 sequence: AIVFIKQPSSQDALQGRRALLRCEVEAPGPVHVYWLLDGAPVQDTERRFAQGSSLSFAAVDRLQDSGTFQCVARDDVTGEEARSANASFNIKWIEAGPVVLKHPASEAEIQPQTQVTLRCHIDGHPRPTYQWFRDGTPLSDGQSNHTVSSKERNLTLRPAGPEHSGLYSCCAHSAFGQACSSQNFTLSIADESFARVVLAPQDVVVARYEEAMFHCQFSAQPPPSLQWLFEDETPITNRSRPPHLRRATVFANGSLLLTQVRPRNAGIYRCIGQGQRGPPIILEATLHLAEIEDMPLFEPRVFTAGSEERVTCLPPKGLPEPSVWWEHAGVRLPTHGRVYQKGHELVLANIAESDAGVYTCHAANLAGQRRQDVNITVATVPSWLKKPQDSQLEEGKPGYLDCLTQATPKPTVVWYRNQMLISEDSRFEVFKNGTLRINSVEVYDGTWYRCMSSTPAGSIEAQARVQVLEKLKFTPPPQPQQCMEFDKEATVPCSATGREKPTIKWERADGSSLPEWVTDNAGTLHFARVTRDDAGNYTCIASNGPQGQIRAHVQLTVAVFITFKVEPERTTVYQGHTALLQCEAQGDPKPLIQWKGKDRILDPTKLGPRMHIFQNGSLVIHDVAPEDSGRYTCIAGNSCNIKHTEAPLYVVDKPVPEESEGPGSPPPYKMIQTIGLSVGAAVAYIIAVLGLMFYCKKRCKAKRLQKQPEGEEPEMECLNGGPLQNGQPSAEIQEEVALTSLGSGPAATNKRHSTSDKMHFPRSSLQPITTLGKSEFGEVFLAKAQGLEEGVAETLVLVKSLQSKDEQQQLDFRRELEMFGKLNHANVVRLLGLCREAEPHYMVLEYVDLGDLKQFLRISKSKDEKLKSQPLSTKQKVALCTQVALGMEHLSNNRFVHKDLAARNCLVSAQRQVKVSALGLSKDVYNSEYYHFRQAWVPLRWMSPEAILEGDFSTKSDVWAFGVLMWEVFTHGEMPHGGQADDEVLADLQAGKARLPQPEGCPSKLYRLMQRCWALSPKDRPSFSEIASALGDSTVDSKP
Kind of data set: flow cytometry. The conditions noted are these: 250 nM aptamer (varied for Kd), 30 min at 4 C, DPBS with ~5 mM MgCl2, 0.1 mg/mL yeast tRNA, protein on the cell surface. Background: Flow cytometry measures light scatter and fluorescence of single cells or particles in a stream.

For at least one entry, the source does not settle the construct or the ends of the probe. At least one result comes from cells or an extract, where the contact may be indirect. Negatives hold for the conditions tested. At least one verdict rests on a figure or table, not on a statement of the authors.

Consider “ATCTAACTGATTATTATTATTATTATTATTATTCGGTTAGA [Lib (Lib-Sgc8-Cy5)]”, for which the binding result (250 nM, negative control, label: 3'-Cy5, single-stranded DNA) is “no binding”.

Turning to “ATCTAACTGCTGCGCCGCCGGGAAAATACTGTACGGTTAGA [Sgc8-1A]”, the binding result (250 nM, fluorescence comparable to Sgc8c, Kd only in Fig. 3B, A1 = cordycepin (3'-deoxyadenosine), 2'-5' linkage, label: 3'-Cy5, synthetic backbone) is “binds”. With “ATCTAACTGCTGCGCCGCCGGGAAAATACTGTACGGTTAGA [Sgc8-6A]”, the binding result (nonspecific linear trend, lack of specific binding, weaker fluorescence at 250 nM, A6 = cordycepin (3'-deoxyadenosine), 2'-5' linkage, label: 3'-Cy5, synthetic backbone) is on record as “no binding”.

On to “ATCTAACTGCTGCGCCGCCGGGAAAATACTGTACGGTTAGA [Sgc8-28A]”, for which, for the setting “250 nM, fluorescence comparable to Sgc8c, Kd only in Fig. 3B, A28 = cordycepin (3'-deoxyadenosine), 2'-5' linkage, label: 3'-Cy5, synthetic backbone”, the binding result is given as “binds”. For the sequence “ATCTAACTGCTGCGCCGCCGGGAAAATACTGTACGGTTAGA [Sgc8-33A]”, the binding result (250 nM, fluorescence comparable to Sgc8c, Kd only in Fig. 3B, A33 = cordycepin (3'-deoxyadenosine), 2'-5' linkage, label: 3'-Cy5, synthetic backbone) was “binds”.
